Results: patent US20220356244A1
No constants are given. Whether binding was seen depends on the method and setting. Some results given as binding are weak or reduced against the parent protein; the word gives no strength.

Assays:
[1] = molecular target: CLL subset 2 BCR (HC/LC typical for the CLL subset 2) on TKO cells; test: FACS on TKO cells, with two blind samples
[2] = molecular target: CLL subset 2 BCR (HC/LC typical for the CLL subset 2) on TKO cells; test: FACS on TKO cells carrying the desired BCR
[3] = molecular target: CLL subset 2 BCR (HC/LC typical for the CLL subset 2) on TKO cells; test: FACS binding assay on TKO cells, anti-mouse IgG detection

Measured: binding

B1: AVA-mAb01 (antibody, V domains shown)
VH: QVQLQQSGPGLVQPSQSLSITCTVSGFSLTSYGIHWVRQSPGKGLEWLGVIWRGGGTDSNAAFMSRLSITKDNSKSQVFFKMNSLQADDTAIYYCARSRYDEEESMNYWGQGTSVTVSS
VL: QIVLTQSPASLSASVGETVTITCRASGNIHSYLAWYQQKQGKSPQLLVYNAKTLADGVPSRFSGSGSGTQYSLKINSLQPEDFGSYYCQHFWNTPPTFGAGTKLELK
binds: [1] | [2] | [3]
